The list shows only some results of the screen, not a fair sample: it is rich in T/C values a quarter to a half above the control, in often repeated tests (any T/C) and in doses without a T/C. Other doses and runs of a compound stand elsewhere. T/C gives the treated animals as a percentage of the vehicle group. Some doses have a count of surviving animals in place of a T/C: the source holds a T/C of zero for them, seemingly a mark for toxic or unscored doses. Some doses without a T/C left all or most animals alive at the check, yet need not have been tolerated: survival well below the control is almost never listed, so the zero probably covers shortened survival too. Survivors were counted at the toxicity check, usually on the fifth day, unless a day is given; later deaths do not show. Schedules are NCI's codes, taken here to give the interval after Q, in days (D) or hours (H), and the number of doses after X. Where survival is the endpoint, the PubChem record calls one and a half times the control and up active, and a quarter to a half above the control has no call in these data; cut-offs in other NCI protocols can differ. Some T/C values carry the count of animals alive at the toxicity check (mostly the fifth day); where none is given, no animal had died by that day. Some entries were tested several times; the values are given in rising order. Additions like (4×) say how often a value occurs here. Some schedule codes hold Z or #, which are not explained here.
Tested on: CD2F1 mice, L1210 leukemia ip, survival T/C
Assay: NCI In Vivo Anticancer Drug Screen. Data for tumor model L1210 Leukemia (intraperitoneal) in CD2F1 (CDF1) mice
Details: T/C endpoint: mean survival time, higher T/C = longer survival
Method in brief: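 Compound-dosed mice with transplantable tumor versus matched vehicle controls; endpoint ratio T/C reported.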

[1] = dose: 100.0 mg/kg/injection, schedule: Q01DX009 (ip), vehicle: water

For O=P1(N(CCCl)CCCl)NCCCO1 (stereo not given), the T/C (dose: 100.0 mg/kg/injection, schedule: Q01DX001 (ip), vehicle: other, evaluated on day 30) was 141 % of control, the T/C (dose: 100.0 mg/kg/injection, schedule: Q01DX001 (ip), vehicle: other, evaluated on day 50) was 139 % of control and the T/C (dose: 100.0 mg/kg/injection, schedule: Q01DX001 (ip), vehicle: saline, evaluated on day 5) was 138, 141, 147, 157 (2×), 161, 169 % of control. For the same compound, the T/C (dose: 100.0 mg/kg/injection, schedule: Q01DX001 (ip), vehicle: saline, evaluated on day 7) was 153 % of control, the T/C (dose: 100.0 mg/kg/injection, schedule: Q01DX001 (ip), vehicle: saline, evaluated on day 30) was 117, 127 [5 of 6 alive], 129, 134 (2×), 144, 155 % of control and the T/C (dose: 100.0 mg/kg/injection, schedule: Q01DX001 (ip), vehicle: saline, evaluated on day 35) was 134 and 157 % of control. For the same compound, the T/C (dose: 100.0 mg/kg/injection, schedule: Q01DX001 (ip), vehicle: saline, evaluated on day 40) was 145 and 153 % of control, the T/C (dose: 100.0 mg/kg/injection, schedule: Q01DX001 (ip), vehicle: saline, evaluated on day 60) was 138, 139, 147, 150, 161 % of control and the T/C (dose: 100.0 mg/kg/injection, schedule: Q01DX001 (ip), vehicle: saline, evaluated on day 90) was 95, 132, 134, 136, 142, 143, 145 % of control. For the same compound, the T/C (dose: 100.0 mg/kg/injection, schedule: Q01DX001 (ip), vehicle: water, evaluated on day 5) was 159 % of control, the T/C (dose: 100.0 mg/kg/injection, schedule: Q01DX001 (ip), vehicle: water, evaluated on day 30) was 121, 133, 134, 145, 150, 151, 152, 155, 156, 160, 165, 168 % of control and the T/C (dose: 100.0 mg/kg/injection, schedule: Q01DX001 (ip), vehicle: water, evaluated on day 35) was 184 % of control. For the same compound, the T/C (dose: 100.0 mg/kg/injection, schedule: Q01DX001 (ip), vehicle: water, evaluated on day 45) was 159 % of control, the T/C (dose: 100.0 mg/kg/injection, schedule: Q01DX005 (ip), vehicle: water) was 171 [5 of 6 alive], 198, 211, 249 % of control and the T/C [1] was 92, 118, 125, 132, 141, 142, 152, 172, 182, 186, 188, 189, 192, 194, 214 % of control. The survivor count [1] was 6 of 6, the T/C (dose: 100.0 mg/kg/injection, schedule: Q## X001 (ip), vehicle: saline) was 148 % of control and the T/C (dose: 125.0 mg/kg/injection, schedule: Q01DX001 (ip), vehicle: DMSO, evaluated on day 20) was 134 % of control. For the same compound, the T/C (dose: 125.0 mg/kg/injection, schedule: Q01DX001 (ip), vehicle: DMSO, evaluated on day 25) was 148 and 151 % of control, the T/C (dose: 125.0 mg/kg/injection, schedule: Q01DX001 (ip), vehicle: DMSO, evaluated on day 40) was 170 % of control and the T/C (dose: 125.0 mg/kg/injection, schedule: Q01DX001 (ip), vehicle: DMSO, evaluated on day 60) was 144 % of control. The T/C (dose: 125.0 mg/kg/injection, schedule: Q01DX001 (ip), vehicle: Klucel (hydroxypropylcellulose) (HPC)) was 148 % of control, the T/C (dose: 125.0 mg/kg/injection, schedule: Q01DX001 (ip), vehicle: saline, evaluated on day 30) was 145, 148, 149 [5 of 6 alive], 159, 170, 174, 181, 196, 243 % of control and the T/C (dose: 125.0 mg/kg/injection, schedule: Q01DX001 (ip), vehicle: saline, evaluated on day 35) was 141, 157, 167 [5 of 6 alive], 210 % of control. For the same compound, the T/C (dose: 125.0 mg/kg/injection, schedule: Q01DX001 (ip), vehicle: saline, evaluated on day 40) was 113 % of control, the T/C (dose: 125.0 mg/kg/injection, schedule: Q01DX001 (ip), vehicle: saline, evaluated on day 45) was 136, 147, 151 % of control and the T/C (dose: 125.0 mg/kg/injection, schedule: Q01DX001 (ip), vehicle: saline, evaluated on day 60) was 138 % of control. The T/C (dose: 125.0 mg/kg/injection, schedule: Q01DX001 (ip), vehicle: water, evaluated on day 30) was 119, 139 (2×), 140, 141, 143, 144, 145, 145 [5 of 6 alive], 147, 148, 149, 150, 152 (2×), 153 (2×), 154 (2×), 156 (2×), 157, 159, 160 [5 of 6 alive], 161 (2×), 166, 170 (2×), 172, 173 (2×), 175, 179, 181, 182, 187, 193, 197, 201, 208, 213, 306 % of control, the T/C (dose: 125.0 mg/kg/injection, schedule: Q01DX001 (ip), vehicle: water, evaluated on day 35) was 152 and 185 % of control [4 of 6 alive] and the T/C (dose: 125.0 mg/kg/injection, schedule: Q01DX001 (ip), vehicle: water, evaluated on day 40) was 166 and 196 % of control.

Reference: PubChem BioAssay AID256 (DTP/NCI, 2004)
